Laboratory results taken from article PMC4016276.
No constants are given. Whether binding was seen depends on the method and setting. In cells and extracts the contact can be indirect. Some entries that bind do so weakly or less than the wild type.

Biological target: Wag31 (Mycobacterium tuberculosis H37Rv) (UniProt P9WMU1)
Assay: co-IP; in vitro Co-IP: 35S-methionine-labelled, in vitro translated HA-tagged h-protein and c-Myc-tagged c-protein mixed 1:1 with goat anti-mouse IgG magnetic beads (Dynabeads M-450) coated with monoclonal anti-HA antibodies; SDS-PAGE (4-20%) and phosphorimaging

B1: Wag31 (protein, UniProt P9WMU1 1-260)
chain: MPLTPADVHNVAFSKPPIGKRGYNEDEVDAFLDLVENELTRLIEENSDLRQRINELDQELAAGGGAGVTPQATQAIPAYEPEPGKPAPAAVSAGMNEEQALKAARVLSLAQDTADRLTNTAKAESDKMLADARANAEQILGEARHTADATVAEARQRADAMLADAQSRSEAQLRQAQEKADALQADAERKHSEIMGTINQQRAVLEGRLEQLRTFEREYRTRLKTYLESQLEELGQRGSAAPVDSNADAGGFDQFNRGKN
modifications: L-[35S]-methionine-labelled
- binding: binds
